Laboratory results: PMC9636241
Results are given in words; binding and its absence hold for the method and conditions named. In cells and extracts the contact can be indirect. These calls come from enrichment with a bait or labelling near it, and not all partners need be listed. Sequences can lack the tags named with a protein.

Chains of the proteins cited; added tags and fusions are not shown. Residues count along the entry.
UniProt P52503, residues 21-116: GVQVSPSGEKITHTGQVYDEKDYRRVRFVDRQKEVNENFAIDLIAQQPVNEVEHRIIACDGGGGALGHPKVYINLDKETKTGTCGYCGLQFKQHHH
UniProt P03921: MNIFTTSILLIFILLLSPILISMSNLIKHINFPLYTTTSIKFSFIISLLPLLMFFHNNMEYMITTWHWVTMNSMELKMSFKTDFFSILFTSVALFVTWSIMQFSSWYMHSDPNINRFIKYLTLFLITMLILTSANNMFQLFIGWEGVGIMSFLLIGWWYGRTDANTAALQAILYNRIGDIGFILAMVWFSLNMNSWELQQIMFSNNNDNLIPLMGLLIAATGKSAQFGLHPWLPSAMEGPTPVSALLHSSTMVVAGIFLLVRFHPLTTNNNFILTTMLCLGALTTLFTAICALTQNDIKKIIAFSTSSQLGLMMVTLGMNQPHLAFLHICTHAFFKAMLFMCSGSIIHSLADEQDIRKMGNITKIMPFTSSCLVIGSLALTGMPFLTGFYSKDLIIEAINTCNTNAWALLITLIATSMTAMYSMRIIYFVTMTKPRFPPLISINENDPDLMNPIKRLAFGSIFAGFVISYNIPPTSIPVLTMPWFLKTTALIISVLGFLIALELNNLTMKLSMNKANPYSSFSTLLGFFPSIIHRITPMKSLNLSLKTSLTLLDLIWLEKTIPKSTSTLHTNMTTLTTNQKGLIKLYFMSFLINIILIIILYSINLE
UniProt P56392, residues 22-80: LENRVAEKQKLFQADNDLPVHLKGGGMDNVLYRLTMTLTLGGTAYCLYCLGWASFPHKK
UniProt Q9Z1P6: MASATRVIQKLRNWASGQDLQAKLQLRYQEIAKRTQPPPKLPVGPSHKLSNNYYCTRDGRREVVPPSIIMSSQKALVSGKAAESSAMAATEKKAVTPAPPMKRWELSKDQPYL
UniProt P56391: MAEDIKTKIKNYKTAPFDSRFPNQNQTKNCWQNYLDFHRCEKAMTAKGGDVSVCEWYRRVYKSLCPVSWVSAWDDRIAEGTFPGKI
UniProt Q8K199: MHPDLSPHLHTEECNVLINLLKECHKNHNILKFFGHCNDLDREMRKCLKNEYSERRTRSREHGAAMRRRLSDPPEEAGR

T1: FLAG-MTFP1 (Mitochondrial Fission Process 1) (UniProt Q9CRB8)
T1 sequence: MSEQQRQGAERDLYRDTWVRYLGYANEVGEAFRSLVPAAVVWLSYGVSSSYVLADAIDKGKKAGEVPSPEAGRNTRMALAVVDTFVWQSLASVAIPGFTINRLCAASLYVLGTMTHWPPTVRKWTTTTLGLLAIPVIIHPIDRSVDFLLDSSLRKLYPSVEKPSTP

B1: NDUFB4 (protein, UniProt Q9CQC7 1-129)
chain: MSGSKYKPAPLATLPSTLDPAEYDVSPETRRAQVERLSIRARLKREYLLQYNDPKRVSHIEDPALIRWTYARSANIYPNFRPTPKNSLLGAVAGFGPLIFWYYVFKTDRDRKERLIQEGKLDRKFNISY
B2: ADP/ATP translocase ANT1 (protein, UniProt P48962 1-298)
chain: MGDQALSFLKDFLAGGIAAAVSKTAVAPIERVKLLLQVQHASKQISAEKQYKGIIDCVVRIPKEQGFLSFWRGNLANVIRYFPTQALNFAFKDKYKQIFLGGVDRHKQFWRYFAGNLASGGAAGATSLCFVYPLDFARTRLAADVGKGSSQREFNGLGDCLTKIFKSDGLKGLYQGFSVSVQGIIIYRAAYFGVYDTAKGMLPDPKNVHIIVSWMIAQSVTAVAGLVSYPFDTVRRRMMMQSGRKGADIMYTGTLDCWRKIAKDEGANAFFKGAWSNVLRGMGGAFVLVLYDEIKKYV
B3: USMG5 (protein, UniProt Q78IK2 1-58)
chain: MAGAESDGQFQFTGIKKYFNSYTLTGRMNCVLATYGGIALLVLYFKLRPKKTPAVKAT
B4: NDUFA10 (protein, UniProt Q99LC3 36-355)
chain: LRYGLLAAILGDKTTKKLHEYSRVITVDGNICSGKNKLAKEIAQQLGMKHYPEAGIQYSSTTTGDGRPLDIEFSGSCSLEKFYDDPKSNDGNSYRLQSWLYASRLLQYADALEHLLSTGQGVVLERSIYSDFVFLEAMYNQGYIRKQCVDHYNEIKRLTLPEYLPPHAVIYIDVPVPEVQSRIQKKGDPHEMKVTSAYLQDIENAYKKTFLPKMSEMCEVLVYDSWEAEDPTKVVEDIEYLKYNKGPWLKQDDWTFHYLRMLVQDKTEVLNYTTIPVYLPEITIGAHQGSRIYNSFRELPGRKYAPGYNAEVGDKWIWLK
B5: heat shock protein TRAP1 (protein, UniProt Q9CQN1 61-706)
chain: STQAAEDKEEESLHSIISNTEAVRGSVSKHEFQAETKKLLDIVARSLYSEKEVFIRELISNASDALEKLRHKLVCEGQVLPEMEIHLQTDAKKGTITIQDTGIGMTQEELVSNLGTIARSGSKAFLEALQNQAETSSKIIGQFGVGFYSAFMVADKVEVYSRSAAPESPGYQWLSDGSGVFEIAEASGVRPGTKIIIHLKSDCKDFASESRVQDVVTKYSNFVSFPLYLNGKRINTLQAIWMMDPKDISEFQHEEFYRYIAQAYDKPRFTLHYKTDAPLNIRSIFYVPEMKPSMFDVSRELGSSVALYSRKVLIQTKAADILPKWLRFIRGVVDSEDIPLNLSRELLQESALIRKLRDVLQQRLIKFFIDQSKKDAEKYAKFFEDYGLFMREGIVTTAEQDIKEDIAKLLRYESSALPAGQLTSLPDYASRMQAGTRNIYYLCAPNRHLAEHSPYYEAMKQKHTEVLFCYEQFDELTLLHLREFDKKKLISVETDIVVDHYKEEKFEDTSPADERLSEKETEDLMAWMRNALGSRVTNVKVTFRLDTHPAMVTVLEMGAARHFLRMQQLAKTQEERAQLLQPTLEINPRHTLIKKLCQLRESEPELAQLLVDQIYENAMIAAGLVDDPRAMVGRLNDLLVKVLEKH
B6: SCO2 (protein, UniProt Q8VCL2 42-255)
chain: QGPGLRTRLLITALFGAGLGWAWLAARAEKEQWRQQQRTEALRQAAVGQGDFSLLDHKGQPRCKADFRGQWVLMYFGFTHCPDICPDELEKLVQVVRKLEAEPDLPLVQPVFITVDPERDDVAAMARYVQEFHPRLLGLTGSTEQVAHASRNYRVYYSAGPKDEDQDYIVDHSIAIYLLNPDGLFTDYYGRSRSAEQIVESIRRHIAAFHSVLP
B7: ATP5L (protein, UniProt Q9CPQ8 1-103)
chain: MAKFIRNFAEKAPSMVAAAVTYSKPRLATFWHYAKVELVPPTPAEIPTAIQSVKKIIQSAKTGSFKHLTVKEAVLNGLVATEVWMWFYIGEIIGKRGIVGYDV
B8: inorganic phosphate carrier SLC25A3 (protein, UniProt Q8VEM8 46-357)
chain: AVEEYSCEFGSMKYYALCGFGGVLSCGLTHTAVVPLDLVKCRMQVDPQKYKGIFNGFSITLKEDGVRGLAKGWAPTLIGYSMQGLCKFGFYEVFKALYSNILGEENTYLWRTSLYLASSASAEFFADIALAPMEAAKVRIQTQPGYANTLREAVPKMYKEEGLNAFYKGVAPLWMRQIPYTMMKFACFERTVEALYKFVVPKPRSECTKAEQLVVTFVAGYIAGVFCAIVSHPADSVVSVLNKEKGSTASQVLQRLGFRGVWKGLFARIIMIGTLTALQWFIYDSVKVYFRLPRPPPPEMPESLKKKLGLTE

Molecular target: T1, FLAG-MTFP1 (Mitochondrial Fission Process 1)
Test: affinity purification with mass spectrometry; 500 µg cardiac crude mitochondria of FLAG-MTFP1 knock-in mice (WT mice as control) lysed in IP buffer (20 mM HEPES-KOH pH 7.5, 150 mM NaCl, 0.25% Triton X-100); anti-FLAG magnetic beads, 2 h at 4 °C; eluates analysed by LC-MS/MS

binding, binds:
NDUFS6 (from UniProt P52503 21-116), MTND5 (from UniProt P03921 1-607), COX7A1 (from UniProt P56392 22-80), NDUFA7 (from UniProt Q9Z1P6 1-113), COX6B1 (from UniProt P56391 1-86), CMC2 (from UniProt Q8K199 1-79), B1, B2, B3, B4, B5, B6, B7, B8
